# About 3,300 (0.97%) of roughly 340,000 compounds were called active.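 How the source made its calls: active means maximum activity change below -70%; inconclusive means maximum activity change from -70% to -50%; inactive means maximum activity change above -50%.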 The list shows a part of the results.
# The chains behind the UniProt entries cited, without tags or fusion partners. A line that says so, or that is headed by a name, gives the form on record, which may keep a tag or linker.
# UniProt Q12809, as listed by the source: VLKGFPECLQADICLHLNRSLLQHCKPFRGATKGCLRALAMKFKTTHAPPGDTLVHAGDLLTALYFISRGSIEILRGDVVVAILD
# Molecular target: Voltage-gated inwardly rectifying potassium channel KCNH2, Homo sapiens (UniProt Q12809)
# Experiment: qHTS for Inhibitors of KCHN2 3.1: Mutant qHTS
row,SMILES,outcome
1,CCCCNC(=O)O[C@@H]1C[C@@H]2CCN3C(=O)CCC[C@H]([C@H]1CC)[C@H]23,inactive
2,O=C1[C@H](Cc2ccccc2)NCC=CC[C@@H](c2ccc(Cl)cc2)N1Cc1ccc(Cl)cc1,inactive

# From the GenesisPotency data set
